Measurements reported in PubChem BioAssay AID1259405 (NCATS, 2018)

- Purpose: 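Silenced genes that increase secreted GFP made by CHO cells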 (primary screen)
- Cell system: Chinese hamster CHO-K1 ovary cells with stable secreted eGFP expression
- Knock-down reagent: single siRNA against mouse genes, 0.8 pmol siRNA per well (2 µl of 400 nM stock)
- Duration: 3 days
- Detection: 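Percent of the per-plate non-targeting control median for intracellular GFP per well by laser scanning cytometry and for cell viability by ATP luminescence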
- Direction: GFP, % of control: higher = more GFP per well, higher productivity; viability (ATP), % of control: higher = more viable cells (more ATP)
- Rule for the call: 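Called active when intracellular GFP, relative to negative control, is at or above 120%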
In all, the deposit lists about 50,000 reagents; this is an unselected part. Of all reagents, about 4,000 (8%) are marked active. 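Mouse siRNA library applied to hamster cells; one well for each siRNA.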 Unmarked entries are inactive. The numbers tell different reagents against one gene apart.

Against Epb41l3 (GeneID 13823) #1 the deposit lists GFP, % of control 67.3; viability (ATP), % of control 88.3.
Knock-down of Epb41l3 (GeneID 13823) #2 came out at: GFP, % of control 141 (active); viability (ATP), % of control 90.7.
With knock-down of Epb41l3 (GeneID 13823) #3 the results were GFP, % of control 166 (active); viability (ATP), % of control 40.2.
Knock-down of Or9a7 (GeneID 258380) #1 gave: GFP, % of control 49.2; viability (ATP), % of control 47.8.
For Or9a7 (GeneID 258380) #2 the deposit lists GFP, % of control 133 (active); viability (ATP), % of control 108.
With knock-down of Or9a7 (GeneID 258380) #3 the results were GFP, % of control 99.3; viability (ATP), % of control 47.2.
Smg5 (GeneID 229512) #1 scored GFP, % of control 47.7; viability (ATP), % of control 58.2.
Silencing of Smg5 (GeneID 229512) #2 came out at: GFP, % of control 81.4; viability (ATP), % of control 46.6.
Silencing of Smg5 (GeneID 229512) #3 gave: GFP, % of control 73.4; viability (ATP), % of control 105.
Depletion of Efs (GeneID 13644) #1 gave: GFP, % of control 116; viability (ATP), % of control 85.6.
Efs (GeneID 13644) #2 scored GFP, % of control 107; viability (ATP), % of control 92.3.
Depletion of Pex5 (GeneID 19305) #1 came out at: GFP, % of control 67.7; viability (ATP), % of control 87.
For Pex5 (GeneID 19305) #2, the values are GFP, % of control 71.8; viability (ATP), % of control 74.
Against Ctnnbip1 (GeneID 67087) #1, the entry reads GFP, % of control 76.2; viability (ATP), % of control 64.3.
Knock-down of Ctnnbip1 (GeneID 67087) #2 came out at: GFP, % of control 28.2; viability (ATP), % of control 33.6.
Depletion of Ctnnbip1 (GeneID 67087) #3 gave: GFP, % of control 97.7; viability (ATP), % of control 102.
With knock-down of Dars2 (GeneID 226539) #1, the screen gave GFP, % of control 61.3; viability (ATP), % of control 78.9.
After knock-down of Dars2 (GeneID 226539) #2 the results were GFP, % of control 93.4; viability (ATP), % of control 83.3.
With knock-down of Dars2 (GeneID 226539) #3, the record shows GFP, % of control 79.7; viability (ATP), % of control 65.8.
With knock-down of Tecr (GeneID 106529) #1, the record shows GFP, % of control 59.8; viability (ATP), % of control 64.3.
Knock-down of Tecr (GeneID 106529) #2 gave: GFP, % of control 64.6; viability (ATP), % of control 54.8.
Tecr (GeneID 106529) #3 gave GFP, % of control 124 (active); viability (ATP), % of control 61.
Silencing of Npy4r (GeneID 19065) #1 resulted in: GFP, % of control 107; viability (ATP), % of control 96.9.
Against Npy4r (GeneID 19065) #2 the deposit lists GFP, % of control 72.9; viability (ATP), % of control 70.8.
Silencing of Npy4r (GeneID 19065) #3 came out at: GFP, % of control 85.8; viability (ATP), % of control 71.1.
After knock-down of Rgmb (GeneID 68799) #1, the screen gave GFP, % of control 59.5; viability (ATP), % of control 78.4.
Silencing of Rgmb (GeneID 68799) #2 came out at: GFP, % of control 32; viability (ATP), % of control 25.7.
Silencing of Rgmb (GeneID 68799) #3 came out at: GFP, % of control 65.1; viability (ATP), % of control 61.7.

Hits, among the entries above:
Epb41l3 (GeneID 13823) #2 | GFP, % of control: 141 (active); viability (ATP), % of control: 90.7
Epb41l3 (GeneID 13823) #3 | GFP, % of control: 166 (active); viability (ATP), % of control: 40.2
Or9a7 (GeneID 258380) #2 | GFP, % of control: 133 (active); viability (ATP), % of control: 108
Tecr (GeneID 106529) #3 | GFP, % of control: 124 (active); viability (ATP), % of control: 61

Continued:
For Fmr1nb (GeneID 207854) #1, the values are GFP, % of control 80.1; viability (ATP), % of control 80.2.
Depletion of Fmr1nb (GeneID 207854) #2 gave: GFP, % of control 73.6; viability (ATP), % of control 69.7.
Fmr1nb (GeneID 207854) #3 showed GFP, % of control 90.5; viability (ATP), % of control 82.9.
Against Syt7 (GeneID 54525) #1 the deposit lists GFP, % of control 142 (active); viability (ATP), % of control 151.
After knock-down of Syt7 (GeneID 54525) #2, the screen gave GFP, % of control 74; viability (ATP), % of control 101.
Silencing of Slc33a1 (GeneID 11416) #1 resulted in: GFP, % of control 51.1; viability (ATP), % of control 104.
Slc33a1 (GeneID 11416) #2 showed GFP, % of control 104; viability (ATP), % of control 71.5.
Knock-down of Slc33a1 (GeneID 11416) #3 came out at: GFP, % of control 89.5; viability (ATP), % of control 68.3.
Tfpi (GeneID 21788) #1 gave GFP, % of control 80.7; viability (ATP), % of control 60.9.
Against Tfpi (GeneID 21788) #2 the deposit lists GFP, % of control 70.5; viability (ATP), % of control 44.9.
With knock-down of Tfpi (GeneID 21788) #3, the record shows GFP, % of control 104; viability (ATP), % of control 109.
Against Dvl2 (GeneID 13543) #1 the deposit lists GFP, % of control 90.7; viability (ATP), % of control 84.6.
Against Dvl2 (GeneID 13543) #2 the deposit lists GFP, % of control 44.7; viability (ATP), % of control 57.
Dvl2 (GeneID 13543) #3 showed GFP, % of control 106; viability (ATP), % of control 86.2.
